# From the supplement of paper PMC8728848
# This is one part of the list.
# Key:
# Assay in all cases: glycan array binding signal (z-score within array); higher = stronger binding
# Details in all cases: glycan notation: IUPAC condensed, linker removed
# [1] = target: Fuc(a1-2)Gal
# Outline: (§1)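 Glycan array data were curated from 3228 arrays in the Consortium for Functional Glycomics database and kept only where the protein sequence was available. Glycan names were converted to IUPAC-condensed notation, and columns mapping to the same glycan were averaged. The binding signal is a within-array Z-score, averaged across arrays of the same protein sequence at different concentrations or buffers and across linkers. Negative Z-scores can be read as non-binding.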
# [2] = target: Fuc(a1-2)Gal(b1-3)GalNAc
# Outline: as §1
# [3] = target: Fuc(a1-2)Gal(b1-3)GalNAc(b1-3)Gal
# Outline: as §1
# [4] = target: Fuc(a1-2)Gal(b1-3)GalNAc(b1-3)Gal(a1-4)Gal(b1-4)Glc
# Outline: as §1
# [5] = target: Fuc(a1-2)Gal(b1-3)GalNAc(b1-4)[Neu5Ac(a2-3)]Gal(b1-4)Glc
# Outline: as §1
# [6] = target: Fuc(a1-2)Gal(b1-3)GlcNAc
# Outline: as §1
# [7] = target: Fuc(a1-2)Gal(b1-3)GlcNAc(b1-2)Man(a1-3)[Fuc(a1-2)Gal(b1-3)GlcNAc(b1-2)Man(a1-6)]Man(b1-4)GlcNAc(b1-4)GlcNAc
# Outline: as §1
# [8] = target: Fuc(a1-2)Gal(b1-3)GlcNAc(b1-3)Gal(b1-4)Glc
# Outline: as §1
# [9] = target: Fuc(a1-2)Gal(b1-3)GlcNAc(b1-3)[Gal(b1-4)[Fuc(a1-3)]GlcNAc(b1-6)]Gal(b1-4)Glc
# Outline: as §1
# [10] = target: Fuc(a1-2)Gal(b1-3)[Fuc(a1-4)]GlcNAc
# Outline: as §1
# [11] = target: Fuc(a1-2)Gal(b1-3)[Fuc(a1-4)]GlcNAc(b1-2)Man(a1-3)[Fuc(a1-2)Gal(b1-3)[Fuc(a1-4)]GlcNAc(b1-2)Man(a1-6)]Man(b1-4)GlcNAc(b1-4)GlcNAc
# Outline: as §1
# [12] = target: Fuc(a1-2)Gal(b1-4)Glc
# Outline: as §1
# [13] = target: Fuc(a1-2)Gal(b1-4)Glc6S
# Outline: as §1
# [14] = target: Fuc(a1-2)Gal(b1-4)GlcNAc
# Outline: as §1
# [15] = target: Fuc(a1-2)Gal(b1-4)GlcNAc(b1-2)Man(a1-3)[Fuc(a1-2)Gal(b1-4)GlcNAc(b1-2)Man(a1-6)]Man(b1-4)GlcNAc(b1-4)GlcNAc
# Outline: as §1
# [16] = target: Fuc(a1-2)Gal(b1-4)GlcNAc(b1-3)Gal(b1-4)GlcNAc
# Outline: as §1
# [17] = target: Fuc(a1-2)Gal(b1-4)GlcNAc(b1-3)Gal(b1-4)GlcNAc(b1-3)Gal(b1-4)GlcNAc
# Outline: as §1
# [18] = target: Fuc(a1-2)Gal(b1-4)GlcNAc6S
# Outline: as §1
# [19] = target: Fuc(a1-2)Gal(b1-4)[Fuc(a1-3)]GlcNAc
# Outline: as §1
# [20] = target: Fuc(a1-2)Gal(b1-4)[Fuc(a1-3)]GlcNAc(b1-2)Man(a1-3)[Fuc(a1-2)Gal(b1-4)[Fuc(a1-3)]GlcNAc(b1-2)Man(a1-6)]Man(b1-4)GlcNAc(b1-4)GlcNAc
# Outline: as §1
# [21] = target: Fuc(a1-2)Gal(b1-4)[Fuc(a1-3)]GlcNAc(b1-3)Gal(b1-4)[Fuc(a1-3)]GlcNAc
# Outline: as §1
# [22] = target: Fuc(a1-2)Gal(b1-4)[Fuc(a1-3)]GlcNAc(b1-3)Gal(b1-4)[Fuc(a1-3)]GlcNAc(b1-3)Gal(b1-4)[Fuc(a1-3)]GlcNAc
# Outline: as §1
# [23] = target: Fuc(a1-2)Gal6S(b1-4)Glc
# Outline: as §1
# [24] = target: Fuc(a1-2)Gal6S(b1-4)Glc6S
# Outline: as §1
# [25] = target: Fuc(a1-2)Gal6S(b1-4)GlcNAc
# Outline: as §1
# [26] = target: Fuc(a1-2)[Gal(a1-3)]Gal
# Outline: as §1
# [27] = target: Fuc(a1-2)[Gal(a1-3)]Gal(b1-3)GlcNAc
# Outline: as §1
# [28] = target: Fuc(a1-2)[Gal(a1-3)]Gal(b1-3)GlcNAc(b1-2)Man(a1-3)[Fuc(a1-2)[Gal(a1-3)]Gal(b1-3)GlcNAc(b1-2)Man(a1-6)]Man(b1-4)GlcNAc(b1-4)GlcNAc
# Outline: as §1
# [29] = target: Fuc(a1-2)[Gal(a1-3)]Gal(b1-4)Glc
# Outline: as §1
# [30] = target: Fuc(a1-2)[Gal(a1-3)]Gal(b1-4)GlcNAc
# Outline: as §1
# [31] = target: Fuc(a1-2)[Gal(a1-3)]Gal(b1-4)GlcNAc(b1-2)Man(a1-3)[Fuc(a1-2)[Gal(a1-3)]Gal(b1-4)GlcNAc(b1-2)Man(a1-6)]Man(b1-4)GlcNAc(b1-4)GlcNAc
# Outline: as §1
# [32] = target: Fuc(a1-2)[Gal(a1-3)]Gal(b1-4)[Fuc(a1-3)]GlcNAc
# Outline: as §1
# [33] = target: Fuc(a1-2)[Gal(a1-4)]Gal(b1-4)GlcNAc
# Outline: as §1
# [34] = target: Fuc(a1-2)[GalNAc(a1-3)]Gal
# Outline: as §1
# [35] = target: Fuc(a1-2)[GalNAc(a1-3)]Gal(b1-3)GlcNAc
# Outline: as §1
# [36] = target: Fuc(a1-2)[GalNAc(a1-3)]Gal(b1-3)GlcNAc(b1-2)Man(a1-3)[Fuc(a1-2)[GalNAc(a1-3)]Gal(b1-3)GlcNAc(b1-2)Man(a1-6)]Man(b1-4)GlcNAc(b1-4)GlcNAc
# Outline: as §1
# [37] = target: Fuc(a1-2)[GalNAc(a1-3)]Gal(b1-4)Glc
# Outline: as §1
binder,measurement,setting,value
"Spy 2007 (Streptococcus pyogenes), Q99XV3 (protein) MKKGFFLMAMVVSLVMIAGCDKSANPKQPTQGMSVVTSFYPMYAMTKEVSGDLNDVRMIQSGAGIHSFEPSVNDVAAIYDADLFVYHSHTLEAWARDLDPNLKKSKVDVFEASKPLTLDRVKGLEDMEVTQGIDPATLYDPHTWTDPVLAGEEAVNIAKELGRLDPKHKDSYTKNAKAFKKEAEQLTEEYTQKFKKVRSKTFVTQHTAFSYLAKRFGLKQLGISGISPEQEPSPRQLKEIQDFVKEYNVKTIFAEDNVNPKIAHAIAKSTGAKVKTLSPLEAAPSGNKTYLENLRANLEVLYQQLK",glycan array binding signal (z-score),[1],2.07
same,glycan array binding signal (z-score),[2],-0.465
same,glycan array binding signal (z-score),[3],-0.204
same,glycan array binding signal (z-score),[4],-0.587
same,glycan array binding signal (z-score),[5],-0.602
same,glycan array binding signal (z-score),[6],-0.387
same,glycan array binding signal (z-score),[7],0.811
same,glycan array binding signal (z-score),[8],-0.532
same,glycan array binding signal (z-score),[9],-0.69
same,glycan array binding signal (z-score),[10],-0.561
same,glycan array binding signal (z-score),[11],0.064
same,glycan array binding signal (z-score),[12],-0.353
same,glycan array binding signal (z-score),[13],0.714
same,glycan array binding signal (z-score),[14],0.299
same,glycan array binding signal (z-score),[15],-0.01
same,glycan array binding signal (z-score),[16],-0.495
same,glycan array binding signal (z-score),[17],-0.125
same,glycan array binding signal (z-score),[18],-0.056
same,glycan array binding signal (z-score),[19],-0.671
same,glycan array binding signal (z-score),[20],0.69
same,glycan array binding signal (z-score),[21],-0.862
same,glycan array binding signal (z-score),[22],0.084
same,glycan array binding signal (z-score),[23],2.17
same,glycan array binding signal (z-score),[24],0.976
same,glycan array binding signal (z-score),[25],1.21
same,glycan array binding signal (z-score),[26],-0.201
same,glycan array binding signal (z-score),[27],-0.784
same,glycan array binding signal (z-score),[28],-0.975
same,glycan array binding signal (z-score),[29],-0.515
same,glycan array binding signal (z-score),[30],-0.722
same,glycan array binding signal (z-score),[31],-1.22
same,glycan array binding signal (z-score),[32],0.664
same,glycan array binding signal (z-score),[33],-0.369
same,glycan array binding signal (z-score),[34],-0.504
same,glycan array binding signal (z-score),[35],0.059
same,glycan array binding signal (z-score),[36],-0.914
same,glycan array binding signal (z-score),[37],-0.849

# Pulled one by one from above (three):
binder,measurement,setting,value
"Spy 2007 (Streptococcus pyogenes), Q99XV3 (protein) MKKGFFLMAMVVSLVMIAGCDKSANPKQPTQGMSVVTSFYPMYAMTKEVSGDLNDVRMIQSGAGIHSFEPSVNDVAAIYDADLFVYHSHTLEAWARDLDPNLKKSKVDVFEASKPLTLDRVKGLEDMEVTQGIDPATLYDPHTWTDPVLAGEEAVNIAKELGRLDPKHKDSYTKNAKAFKKEAEQLTEEYTQKFKKVRSKTFVTQHTAFSYLAKRFGLKQLGISGISPEQEPSPRQLKEIQDFVKEYNVKTIFAEDNVNPKIAHAIAKSTGAKVKTLSPLEAAPSGNKTYLENLRANLEVLYQQLK",glycan array binding signal (z-score),[7],0.811
same,glycan array binding signal (z-score),[1],2.07
same,glycan array binding signal (z-score),[28],-0.975
